Patent publication US20210052705A1, “METHOD OF DRUG […] FOR PTH, PTHrP AND RELATED PEPTIDES” (Radius Health, Inc., priority 2011, published 2021)
Not every detail of the peptide structures is certain; ends, links or a residue may be inferred.

Tested on: ovariectomy (OVX)-induced bone loss model
Assay: Trabecular bone micro-architecture by micro-computed tomography in OVX rats
Format: in vivo, Sprague Dawley rats
[1] = distal femur metaphysis, LCP microneedle array 8.8 μg, repeat application
[2] = distal femur metaphysis, PC microneedle array 13.6 μg, repeat application
[3] = distal femur metaphysis, SC 12.7 μg, repeat daily administration
[4] = lumbar spine, LCP microneedle array 8.8 μg, repeat application
[5] = lumbar spine, PC microneedle array 13.6 μg, repeat application
[6] = lumbar spine, SC 12.7 μg, repeat daily administration

SMILES: CC[C@H](C)[C@H](NC(=O)[C@H](CO)NC(=O)[C@H](CCCCN)NC(=O)CNC(=O)[C@H](CCCCN)NC(=O)[C@H](CC(=O)O)NC(=O)[C@H](Cc1c[nH]cn1)NC(=O)[C@H](CC(C)C)NC(=O)[C@H](CC(C)C)NC(=O)[C@H](CCC(N)=O)NC(=O)[C@H](Cc1c[nH]cn1)NC(=O)[C@H](CCC(=O)O)NC(=O)[C@H](CO)NC(=O)[C@@H](NC(=O)[C@H](C)N)C(C)C)C(=O)N[C@@H](CCC(N)=O)C(=O)N[C@@H](CC(=O)O)C(=O)N[C@@H](CC(C)C)C(=O)N[C@@H](CCCNC(=N)N)C(=O)N[C@@H](CCCNC(=N)N)C(=O)N[C@@H](CCCNC(=N)N)C(=O)N[C@@H](CCC(=O)O)C(=O)N[C@@H](CC(C)C)C(=O)N[C@@H](CC(C)C)C(=O)N[C@@H](CCC(=O)O)C(=O)N[C@@H](CCCCN)C(=O)N[C@@H](CC(C)C)C(=O)N[C@@H](CC(C)C)C(=O)NC(C)(C)C(=O)N[C@@H](CCCCN)C(=O)N[C@@H](CC(C)C)C(=O)N[C@@H](Cc1c[nH]cn1)C(=O)N[C@H](C(=O)N[C@@H](C)C(N)=O)[C@@H](C)O [Peptide]
- ABD [1]: 215 ± 46 mgHA/mm^2
- BV/TV [1]: 0.240 ± 0.05 ratio
- Conn. D [1]: 124 ± 15 #/mm^3
- Tb. N [1]: 2.14 ± 0.37 #/mm
- Tb. Sp [1]: 0.507 ± 0.12 mm
- Tb. Th [1]: 0.104 ± 0.01 mm
- ABD [2]: 202 ± 54 mgHA/mm^2
- BV/TV [2]: 0.227 ± 0.06 ratio
- Conn. D [2]: 122 ± 6 #/mm^3
- Tb. N [2]: 2.21 ± 0.70 #/mm
- Tb. Sp [2]: 0.513 ± 0.16 mm
- ABD [3]: 222 ± 44 mgHA/mm^2
- BV/TV [3]: 0.253 ± 0.05 ratio
- Conn. D [3]: 122 ± 8 #/mm^3
- Tb. N [3]: 2.33 ± 0.53 #/mm
- Tb. Sp [3]: 0.471 ± 0.11 mm
- Tb. Th [3]: 0.108 ± 0.01 mm
- ABD [4]: 432 ± 14 mgHA/mm^2
- BV/TV [4]: 0.500 ± 0.03 ratio
- Conn. D [4]: 48 ± 6 #/mm^3
- Tb. N [4]: 4.00 ± 0.37 #/mm
- Tb. Sp [4]: 0.225 ± 0.02 mm
- Tb. Th [4]: 0.125 ± 0.01 mm
- ABD [5]: 451 ± 28 mgHA/mm^2
- BV/TV [5]: 0.520 ± 0.04 ratio
- Conn. D [5]: 44 ± 10 #/mm^3
- Tb. N [5]: 4.00 ± 0.38 #/mm
- Tb. Sp [5]: 0.223 ± 0.02 mm
- Tb. Th [5]: 0.131 ± 0.01 mm
- ABD [6]: 451 ± 43 mgHA/mm^2
- BV/TV [6]: 0.520 ± 0.05 ratio
- Conn. D [6]: 46 ± 8 #/mm^3
- Tb. N [6]: 4.02 ± 0.39 #/mm
- Tb. Sp [6]: 0.224 ± 0.03 mm
- Tb. Th [6]: 0.132 ± 0.01 mm
